Source: patent publication US20230272070A1 (published 2023)
Results are given in words; binding and its absence hold for the method and conditions named. Some entries that bind do so weakly or less than the wild type.

Legend:
[1] = biological target: cynomolgus CD19 (cynomolgus monkey); test: flow cytometry on CHO cells transfected with cynomolgus CD19
[2] = biological target: cynomolgus CD19 (cynomolgus monkey); test: flow cytometry on cynomolgus PBMC (B cells), 30 and 3 µg/mL

binding [1]	binding [2]	Binder
binds	binds	F6 antibody (antibody, human IgG1, V domains shown, Tested as human IgG1; also called human IgG1 F6 anti-CD19 antibody) VH: EVQLVQSGAEVKKPGESLKISCKGSGYSFTSYWIGWVRQMPGKGLEWMGIIYPGDSDTRYSPSFQGQVTISADKSISTAYLQWSSLKASDTAMYYCARVWYYDFWSGADAFDIWGQGTLVTVSS VL: EIVMTQSPATLSVSPGERATLSCRASQSVSSNLAWYQQKPGQAPRLLIYGASTRATGIPARFSGSGSGTEFTLTISSLQSEDFAVYYCQQGSLEAPQTFGQGTKVEIK
binds	binds	7F11 antibody (antibody, human IgG1, V domains shown, Tested as human IgG1; also called human IgG1 7F11 anti-CD19 antibody) VH: EVQLVQSGAEVKKPGESLKISCKGSGYSFTSYWIGWVRQMPGKGLEWMGIIYPGDSDTRYSPSFQGQVTISADKSISTAYLQWSSLKASDTAMYYCARGVSGIYNLHGFDIWGQGTLVTVSS VL: DIQMTQSPSSLSASVGDRVTITCRASQSISSYLNWYQQKPGKAPKLLIYAASSLQSGVPSRFSGSGSGTDFTLTISSLQPEDFATYYCQQGMWDNPFTFGQGTKVEIK

Second part, the binder before the results:

Binder	binding [1]	binding [2]
9G8 antibody (antibody, human IgG1, V domains shown, also called human IgG1 9G8 anti-CD19 antibody) VH: EVQLVQSGAEVKKPGESLKISCKGSGYSFTSYWIGWVRQMPGKGLEWMGIIYPGDSDTRYSPSFQGQVTISADKSISTAYLQWSSLKASDTAMYYCARGVSGIYNLHGFDIWGQGTLVTVSS VL: DIQMTQSPSSLSASVGDRVTITCRASQSISSYLNWYQQKPGKAPKLLIYAASSLQSGVPSRFSGSGSGTDFTLTISSLQPEDFATYYCQQGRFGSPFTFGQGTKVEIK	binds	binds
5F5 antibody (antibody, human IgG1, V domains shown, Tested as human IgG1; also called human IgG1 5F5 anti-CD19 antibody) VH: EVQLVQSGAEVKKPGESLKISCKGSGYSFTSYWIGWVRQMPGKGLEWMGIIYPGDSDTRYSPSFQGQVTISADKSISTAYLQWSSLKASDTAMYYCARGISGIYNLHGFDIWGQGTLVTVSS VL: DIQMTQSPSSLSASVGDRVTITCRASQSISSYLNWYQQKPGKAPKLLIYAASSLQSGVPSRFSGSGSGTDFTLTISSLQPEDFATYYCQQASLDSPLTFGQGTKVEIK	binds	binds
